{"source": "PubChem BioAssay AID743121 (NCATS, 2013)", "assay": "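Partners whose loss is lethal together with topoisomerase I blockade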 (primary screen)", "cell system": "MDA-MB-231 cells, a human breast cancer line", "knock-down reagent": "single siRNA against human genes, 20 nM siRNA (0.8 pmol per well)", "duration": "120 h (drug added 48 h after transfection, read 72 h later)", "challenge": "camptothecin 20 nM (about EC30) for 72 h; vehicle 0.1% DMSO in parallel plates", "measurement": "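CellTiter-Glo ATP signal, scaled to control siRNA as percent viability; sensitisation given as log2 of untreated divided by camptothecin-treated viability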", "direction": "log2 vehicle/camptothecin viability: higher = stronger sensitisation to camptothecin; viability with camptothecin: higher = more viable cells", "units": "viability with camptothecin in % of control", "active means": "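Active genes have an RSA gene-level p-value below 0.001, computed from the ratios of their separate siRNAs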", "note": "This is an unselected part of about 26,000 reagents tested. In the full data, 167 (0.63%) got an active call. 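Calls are per gene from RSA p-values that are not deposited; an individual active-marked siRNA can sensitise only weakly.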 The numbers tell different reagents against one gene apart. Further read-outs or replicates are left out here. Reagent sequences are not shown."}
{"gene knocked down": "PLA2G7", "siRNA no.": 1, "log2 vehicle/camptothecin viability": 0.0038, "viability with camptothecin": 105, "call": "inactive"}
{"gene knocked down": "PLA2G7", "siRNA no.": 2, "log2 vehicle/camptothecin viability": -0.0343, "viability with camptothecin": 86, "call": "inactive"}
{"gene knocked down": "PLA2G7", "siRNA no.": 3, "log2 vehicle/camptothecin viability": -0.26, "viability with camptothecin": 97.9, "call": "inactive"}
{"gene knocked down": "PLA2G7", "siRNA no.": 4, "log2 vehicle/camptothecin viability": -0.461, "viability with camptothecin": 70.1, "call": "inactive"}
{"gene knocked down": "RNF43", "siRNA no.": 1, "log2 vehicle/camptothecin viability": -0.00437, "viability with camptothecin": 101, "call": "inactive"}
{"gene knocked down": "RNF43", "siRNA no.": 2, "log2 vehicle/camptothecin viability": 0.0882, "viability with camptothecin": 73.5, "call": "inactive"}
{"gene knocked down": "RNF43", "siRNA no.": 3, "log2 vehicle/camptothecin viability": -0.322, "viability with camptothecin": 75.8, "call": "inactive"}
{"gene knocked down": "RNF43", "siRNA no.": 4, "log2 vehicle/camptothecin viability": -0.0913, "viability with camptothecin": 110, "call": "inactive"}
{"gene knocked down": "SLC25A25", "siRNA no.": 1, "log2 vehicle/camptothecin viability": -0.356, "viability with camptothecin": 101, "call": "inactive"}
{"gene knocked down": "SLC25A25", "siRNA no.": 2, "log2 vehicle/camptothecin viability": -0.242, "viability with camptothecin": 53.4, "call": "inactive"}
{"gene knocked down": "SLC25A25", "siRNA no.": 3, "log2 vehicle/camptothecin viability": -0.282, "viability with camptothecin": 85, "call": "inactive"}
{"gene knocked down": "SLC25A25", "siRNA no.": 4, "log2 vehicle/camptothecin viability": -0.0517, "viability with camptothecin": 41.1, "call": "inactive"}
{"gene knocked down": "F8", "siRNA no.": 1, "log2 vehicle/camptothecin viability": -0.449, "viability with camptothecin": 76, "call": "inactive"}
{"gene knocked down": "F8", "siRNA no.": 2, "log2 vehicle/camptothecin viability": 0.143, "viability with camptothecin": 91, "call": "inactive"}
{"gene knocked down": "F8", "siRNA no.": 3, "log2 vehicle/camptothecin viability": -0.0419, "viability with camptothecin": 81.2, "call": "inactive"}
{"gene knocked down": "F8", "siRNA no.": 4, "log2 vehicle/camptothecin viability": -0.266, "viability with camptothecin": 121, "call": "inactive"}
{"gene knocked down": "LTBP2", "siRNA no.": 1, "log2 vehicle/camptothecin viability": -0.198, "viability with camptothecin": 116, "call": "inactive"}
{"gene knocked down": "LTBP2", "siRNA no.": 2, "log2 vehicle/camptothecin viability": 0.533, "viability with camptothecin": 25.1, "call": "inactive"}
{"gene knocked down": "LTBP2", "siRNA no.": 3, "log2 vehicle/camptothecin viability": -0.147, "viability with camptothecin": 113, "call": "inactive"}
{"gene knocked down": "LTBP2", "siRNA no.": 4, "log2 vehicle/camptothecin viability": -0.065, "viability with camptothecin": 99.7, "call": "inactive"}
{"gene knocked down": "TXNDC5", "siRNA no.": 1, "log2 vehicle/camptothecin viability": -0.335, "viability with camptothecin": 88.6, "call": "inactive"}
{"gene knocked down": "TXNDC5", "siRNA no.": 2, "log2 vehicle/camptothecin viability": -0.643, "viability with camptothecin": 57.9, "call": "inactive"}
{"gene knocked down": "TXNDC5", "siRNA no.": 3, "log2 vehicle/camptothecin viability": -0.23, "viability with camptothecin": 117, "call": "inactive"}
{"gene knocked down": "TXNDC5", "siRNA no.": 4, "log2 vehicle/camptothecin viability": -0.174, "viability with camptothecin": 103, "call": "inactive"}
{"gene knocked down": "OR3A3", "siRNA no.": 1, "log2 vehicle/camptothecin viability": 0.303, "viability with camptothecin": 32.2, "call": "inactive"}
{"gene knocked down": "OR3A3", "siRNA no.": 2, "log2 vehicle/camptothecin viability": -0.238, "viability with camptothecin": 78.2, "call": "inactive"}
{"gene knocked down": "OR3A3", "siRNA no.": 3, "log2 vehicle/camptothecin viability": 0.0891, "viability with camptothecin": 86.6, "call": "inactive"}
{"gene knocked down": "STX10", "siRNA no.": 1, "log2 vehicle/camptothecin viability": -0.229, "viability with camptothecin": 26.9, "call": "inactive"}
{"gene knocked down": "STX10", "siRNA no.": 2, "log2 vehicle/camptothecin viability": -0.251, "viability with camptothecin": 47.6, "call": "inactive"}
{"gene knocked down": "STX10", "siRNA no.": 3, "log2 vehicle/camptothecin viability": 0.0387, "viability with camptothecin": 88.9, "call": "inactive"}
{"gene knocked down": "STX10", "siRNA no.": 4, "log2 vehicle/camptothecin viability": 0.108, "viability with camptothecin": 99.3, "call": "inactive"}
{"gene knocked down": "GRIN3B", "siRNA no.": 1, "log2 vehicle/camptothecin viability": -0.00708, "viability with camptothecin": 31.5, "call": "inactive"}
{"gene knocked down": "GRIN3B", "siRNA no.": 2, "log2 vehicle/camptothecin viability": -0.0527, "viability with camptothecin": 93.3, "call": "inactive"}
{"gene knocked down": "GRIN3B", "siRNA no.": 3, "log2 vehicle/camptothecin viability": -0.32, "viability with camptothecin": 115, "call": "inactive"}
{"gene knocked down": "GRIN3B", "siRNA no.": 4, "log2 vehicle/camptothecin viability": 0.317, "viability with camptothecin": 69.6, "call": "inactive"}

Reformatted: 5 of the entries above
{"gene knocked down":"LTBP2","siRNA no.":1,"log2 vehicle/camptothecin viability":-0.198,"viability with camptothecin":116,"call":"inactive"}
{"gene knocked down":"LTBP2","siRNA no.":2,"log2 vehicle/camptothecin viability":0.533,"viability with camptothecin":25.1,"call":"inactive"}
{"gene knocked down":"LTBP2","siRNA no.":3,"log2 vehicle/camptothecin viability":-0.147,"viability with camptothecin":113,"call":"inactive"}
{"gene knocked down":"LTBP2","siRNA no.":4,"log2 vehicle/camptothecin viability":-0.065,"viability with camptothecin":99.7,"call":"inactive"}
{"gene knocked down":"TXNDC5","siRNA no.":1,"log2 vehicle/camptothecin viability":-0.335,"viability with camptothecin":88.6,"call":"inactive"}
